Assay results as given in PubChem BioAssay AID2685 (National Center for Advancing Translational Sciences (NCATS), 2010).
The list shows a part of the results. Shown are side measurements of this screen, not its main read-out; they come without a call. The list favours compounds with an active or inconclusive main result. Potencies come from curve fits of mixed quality, noted in brackets.

Assay: qHTS Assay for Lipid Storage Modulators in Drosophila S3 Cells;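 as to cell number change: cells counted by Cell Tracker Red CMTPX staining in the red channel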
Conditions: BODIPY lipid droplet fluorescence, 18-24 h; for cell number change: measured here: cell count max response, cells fed with added oleic acid
Procedure, shortened: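 Drosophila S3 cells loaded with oleic acid (400 uM, as added) and compounds at several concentrations; lipid droplets imaged by 488-nm laser-scanning cytometry, 500–530 nm intensity and object ratio to cell channel. Percent activity normalized to 20 uM Triacsin C.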

[1] = measured here: lipid fluorescence (Fed channel) AC50, cells fed with added oleic acid
[2] = measured here: cell number channel AC50, cells fed with added oleic acid

Structure (SMILES)	cell number change [%]	AC50 [1]	AC50 [2]
CCOC(=O)c1[nH]c2c(c1-c1ccc(OC)cc1)C(=O)CC(c1ccc(OC)c(OC)c1)C2 (stereo unspecified)	15.9	1.3 µM [rising, full curve]	–
CCNC(=O)CC1C(=O)N(c2ccc(C)cc2)C(=O)N1CCc1sccc1C (stereo unspecified)	-25.8	0.517 µM [falling, full curve]	–
Oc1ccc[n+](CC(O)c2ccccc2)c1 (stereo unspecified)	1.09	6.51 µM [falling, single point]	–
COC(=O)C1=C(C)NC(C)=C(C(=O)OCC2CCCO2)C1c1cccc(Cl)c1 (stereo unspecified)	-8.8	6.51 µM [rising, single point]	–
Cc1ccc(C)c(OCC(=O)NNC(=O)c2ccc(NC(=O)C3CC3)cc2)c1	21.2	–	–
COC(=O)c1ccc(NC(=O)Nc2ccccc2F)cc1	5.41	–	2.06 µM [falling, partial curve, poor fit]
Cc1ccc(-c2nc3ccccn3c2Nc2ccccc2)o1	–	5.17 µM [rising, single point]	–
Cn1c(/C=N/Nc2nc3ccccc3[nH]2)nc2ccccc21	-106	29.1 µM [falling, single point]	20.6 µM [falling, single point]
CCN1CCN(C(=O)c2ccc3c(c2)c(C)c(C)n3Cc2ccccc2)CC1	-0.645	0.82 µM [falling, single point]	–
Cc1cc(C)c2c(n1)nn1c(N3CCN(c4ccccn4)CC3)cc(C)nc21	7.94	4.11 µM [rising, partial curve]	–
O=C(CSc1cccc[n+]1[O-])N1CCCc2ccccc21	6.84	6.51 µM [rising, partial curve, poor fit]	0.103 µM [rising, full curve, poor fit]
NNC(=O)C(=O)Nc1ccc(Cl)c(Cl)c1	40.6	0.517 µM [rising, full curve, poor fit]	2.31 µM [rising, full curve, poor fit]
Cc1nnc(NC(=O)CCNC(=O)c2ccccc2Cl)s1	14.4	0.00461 µM [rising, full curve, poor fit]	0.0206 µM [rising, partial curve, poor fit]
O=C(CCCN1C(=O)c2cccnc2C1=O)Nc1ccccc1F	-37	0.517 µM [falling, full curve]	0.411 µM [falling, full curve]
Fc1cccc2sc(Nc3nc4cc5c(cc4s3)OCO5)nc12	-5.94	–	–
CCOc1ccc(CCNC(=O)CCC(=O)N2CCOc3ccc(C)cc32)cc1OCC	-22.5	14.6 µM [falling, partial curve]	–
Cc1c(CC(=O)O)c(=O)oc2cc3occ(-c4ccc(F)cc4)c3cc12	1.22	0.651 µM [falling, single point]	–
Cc1cccc(N(C(=O)CNC(=O)c2cccs2)C(C(=O)NC2CCCC2)c2ccncc2)c1 (stereo unspecified)	-9.21	–	–
CN(C)CCOc1ncnc2c1oc1ccccc12	-55.8	3.66 µM [falling, full curve]	3.66 µM [falling, full curve]
CCC(CC)C(=O)NCCCN1CCOCC1	-19.5	0.146 µM [falling, full curve]	–

Individual results from the results shown:
cell number change [%] with Cc1nnc(NC(=O)CCNC(=O)c2ccccc2Cl)s1 reads 14.4
cell number change [%] with Cc1ccc(C)c(OCC(=O)NNC(=O)c2ccc(NC(=O)C3CC3)cc2)c1 reads 21.2

Later entries.

Structure (SMILES)	cell number change [%]	AC50 [1]	AC50 [2]
Fc1cccc(F)c1CN1CCN(c2ncccn2)CC1	-4.99	0.206 µM [falling, full curve, poor fit]	–
C=CCn1c(SCC(=O)N(CC)CC)nc(O)cc1=O	-10.3	29.1 µM [falling, single point]	0.517 µM [falling, full curve, poor fit]
CCOC(=O)/C(=C/C=C/c1ccccc1)NC(=O)c1ccccc1	34.3	–	23.1 µM [rising, single point]
CC(C)(CNC(=O)c1ccc(NS(=O)(=O)c2ccc(F)cc2)cc1)N1CCOCC1	-10.5	7.31 µM [falling, partial curve]	0.651 µM [falling, single point]
CCc1ccc(S(=O)(=O)N2CC(=O)Nc3ccccc32)cc1	6.83	–	0.651 µM [falling, single point]
Cc1cc(Nc2ccc(F)cc2)nc(N)n1	-9.62	6.51 µM [rising, single point]	–
c1ccc(CCn2nnnc2C(c2cccnc2)N2CCOCC2)cc1 (stereo unspecified)	-2.08	29.1 µM [falling, partial curve, poor fit]	–
c1ccc2c(c1)CC/C2=N/Nc1nc2ccccc2[nH]1	-54.1	8.2 µM [falling, single point]	18.4 µM [falling, single point]
Nc1nc2n(c1C(=O)c1ccccc1)CCC2	1.21	0.116 µM [falling, full curve, poor fit]	–
O=C(/C=C\Nc1ccc2c(c1)OCO2)c1ccccn1	–	0.58 µM [rising, single point]	–
COc1cc(CC(=O)N(C)CC(=O)Nc2cc(C)ccc2C)cc(OC)c1OC	9.17	0.116 µM [falling, single point]	–
NC(=O)c1ccc(/C=N/O)nc1	126	6.51 µM [falling, single point]	20.6 µM [rising, single point]
O=C1NC2=C(C(=O)CCC2)C(c2cccc([N+](=O)[O-])c2)N1 (stereo unspecified)	-4.91	–	–
Cc1ccc(C)c(OCC(=O)NCC(C)C)c1C	32.6	5.17 µM [rising, partial curve]	4.61 µM [rising, partial curve]
Cc1ccc2nc(SC(C)C(=O)N3CC(C)OC(C)C3)[nH]c2c1 (stereo unspecified)	56.6	–	–
CCOC(=O)N1CCN(C(=O)c2ccc3c(c2)N(Cc2cccc(Cl)c2)C(=O)c2ccccc2S3=O)CC1 (stereo unspecified)	-17.5	29.1 µM [falling, partial curve]	–
COc1ccc(NC(=O)Cc2ccc(C)cc2)cc1S(=O)(=O)N1CCCCC1	-3.63	6.51 µM [rising, partial curve, poor fit]	–
COC(=O)Nc1nncs1	-33.8	–	0.82 µM [falling, full curve, poor fit]
Cc1cc(C(=O)OCC(=O)NC2CCS(=O)(=O)C2)c(C)n1-c1ccccc1 (stereo unspecified)	-15.9	–	–
CN(C)S(=O)(=O)N1CCN(CC(O)COc2ccc3cc(Br)ccc3c2)CC1 (stereo unspecified)	-37	32.6 µM [falling, single point]	29.1 µM [falling, single point]

Structure (SMILES)	cell number change [%]	AC50 [1]	AC50 [2]
COc1cccc(OCC(=O)NNC(=O)C(=O)Nc2ccc(OC)cc2OC)c1	1.39	–	–
COCc1[nH]nc2c1C(c1sccc1C)C(C#N)=C(N)O2 (stereo unspecified)	–	29.1 µM [falling, single point]	–
Cc1cnc(C(=O)OCC(=O)Nc2ccc(Br)c(C)c2)cn1	-9.91	0.00461 µM [falling, full curve, poor fit]	0.00461 µM [falling, full curve, poor fit]
O=C(N/N=C/c1cn(-c2ccccc2)nc1-c1cccs1)c1ccncc1	-1.02	29.1 µM [rising, single point]	–
COc1ccc(C(=O)/C=C/c2cccnc2)c(OC)c1	-13.1	29.1 µM [falling, single point]	–
COc1cccc(OC)c1C(=O)Nc1ccc2c(c1)OCCO2	-1.83	–	–
CCOC(=O)CSc1nc(-c2ccc3c(c2)OCO3)ccc1C#N	-12.8	29.1 µM [falling, single point]	–
CCOC(=O)Cc1nn(Cc2ccc(Cl)cc2)c(=O)c2ccccc12	4.78	4.61 µM [rising, single point]	3.26 µM [rising, single point]
COCCOC(=O)c1c(C)oc2ccc(OCc3ccccc3)cc12	28.8	3.66 µM [rising, single point]	–
CCN(c1ccc(OC)cc1)S(=O)(=O)c1nnc(NC(=O)c2ccco2)s1	–	5.8 µM [rising, single point]	–
COc1ccccc1CN1CC(C(=O)NCCc2ccccc2Cl)CCC1=O (stereo unspecified)	59.3	6.51 µM [rising, partial curve]	–
Cc1cc(/C=C2/NC(=O)NC2=O)c(C)n1-c1ccccn1	4.97	7.31 µM [falling, single point]	–
O=C(COC(=O)[C@@H]1CC(O)CN1S(=O)(=O)c1ccccc1[N+](=O)[O-])Nc1ccc2ccccc2c1 (stereo partly specified)	–	0.92 µM [rising, full curve, poor fit]	–
Cc1ccc(NC(=O)N2CCCC2C(=O)Nc2c(C)cc(C)cc2C)cc1 (stereo unspecified)	11.5	29.1 µM [falling, single point]	–
COc1ccccc1N(C)S(=O)(=O)c1ccc(C(=O)Nc2ccc(N3CCOCC3)cc2)cc1	-107	–	29.1 µM [falling, single point]
CCCCOc1ncnc2c1[nH]c1ccc(OC)cc12	2.76	0.103 µM [rising, full curve, poor fit]	–
COc1ccccc1N1CCN(C2CCCN(C(=O)c3cc(C4CC4)on3)C2)CC1 (stereo unspecified)	21.4	29.1 µM [rising, single point]	–
COc1ccc(C(=O)Nc2ccc3nc4n(c(=O)c3c2)CCCC4)cc1[N+](=O)[O-]	-1.11	4.11 µM [rising, partial curve, poor fit]	–
N=c1c2c(ncn1Cc1ccco1)Oc1c(ccc3ccccc13)C2c1ccccc1 (stereo unspecified)	-10.5	–	–
CCN(CC)S(=O)(=O)c1cccc(C(=O)N[C@H](C(=O)O)C(C)C)c1	2.38	18.4 µM [rising, single point]	0.116 µM [rising, full curve, poor fit]
